The results in this text go back to PMC5425608.

Sequences of proteins named here, by UniProt entry; tags and fusion partners are left off.
UniProt Q62406: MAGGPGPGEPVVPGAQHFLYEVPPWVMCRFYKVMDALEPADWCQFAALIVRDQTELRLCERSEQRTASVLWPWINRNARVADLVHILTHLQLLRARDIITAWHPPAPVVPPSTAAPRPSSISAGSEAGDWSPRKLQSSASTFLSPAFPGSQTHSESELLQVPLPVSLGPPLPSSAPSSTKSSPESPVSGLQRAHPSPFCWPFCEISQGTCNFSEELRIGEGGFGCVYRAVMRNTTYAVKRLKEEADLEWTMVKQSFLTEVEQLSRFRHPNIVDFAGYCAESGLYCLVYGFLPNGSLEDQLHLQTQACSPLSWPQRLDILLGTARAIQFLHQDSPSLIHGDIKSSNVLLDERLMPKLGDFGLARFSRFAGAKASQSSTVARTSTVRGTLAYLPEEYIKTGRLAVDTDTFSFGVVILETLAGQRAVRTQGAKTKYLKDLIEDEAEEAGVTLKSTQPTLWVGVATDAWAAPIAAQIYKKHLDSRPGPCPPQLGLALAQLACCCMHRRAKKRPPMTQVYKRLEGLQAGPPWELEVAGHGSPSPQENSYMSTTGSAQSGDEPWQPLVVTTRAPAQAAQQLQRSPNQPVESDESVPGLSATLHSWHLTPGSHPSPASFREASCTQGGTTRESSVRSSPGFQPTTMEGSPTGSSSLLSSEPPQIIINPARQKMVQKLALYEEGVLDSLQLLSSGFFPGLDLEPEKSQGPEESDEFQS

Results are given in words; binding and its absence hold for the method and conditions named. Binding seen in cells or lysates may run through a third protein. Some entries that bind do so weakly or less than the wild type.

This assay has as its target T1, endogenous TRAF6, mouse embryonic fibroblasts (mouse (endogenous in MEFs)) (UniProt P70196).
T1 sequence: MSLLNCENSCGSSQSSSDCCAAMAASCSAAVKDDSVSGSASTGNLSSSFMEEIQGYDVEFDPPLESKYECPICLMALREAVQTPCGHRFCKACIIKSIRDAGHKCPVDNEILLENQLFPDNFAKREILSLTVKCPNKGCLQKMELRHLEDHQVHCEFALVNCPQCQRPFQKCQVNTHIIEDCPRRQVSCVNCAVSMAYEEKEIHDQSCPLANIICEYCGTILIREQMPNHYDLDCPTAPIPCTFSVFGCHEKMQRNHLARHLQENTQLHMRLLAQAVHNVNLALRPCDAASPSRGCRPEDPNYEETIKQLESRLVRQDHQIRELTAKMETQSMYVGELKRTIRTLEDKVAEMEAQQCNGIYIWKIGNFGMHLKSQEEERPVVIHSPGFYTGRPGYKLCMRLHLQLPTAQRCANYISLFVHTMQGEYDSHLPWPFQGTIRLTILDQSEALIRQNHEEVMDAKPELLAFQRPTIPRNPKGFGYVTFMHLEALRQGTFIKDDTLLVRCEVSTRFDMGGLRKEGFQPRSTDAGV
Kind of assay: co-IP; endogenous proteins; LRRK2 +/+ or LRRK2 -/- MEFs treated with 50 ng/ml IL-1β for the indicated times; IP with anti-TRAF6, blot with anti-IRAK1; pre-immune IgG as control.

With “endogenous IRAK1, mouse embryonic fibroblasts (from UniProt Q62406 1-710) (enzyme)”, the binding entry is “binds”.
